Measurements as given in the supplement of paper PMC10849652.
This is one part of the list.

Chains of the proteins cited; added tags and fusions are not shown. Lines headed by an entry give the natural chain unless they say otherwise; changes in a name come on top.
UniProt Q96FN4: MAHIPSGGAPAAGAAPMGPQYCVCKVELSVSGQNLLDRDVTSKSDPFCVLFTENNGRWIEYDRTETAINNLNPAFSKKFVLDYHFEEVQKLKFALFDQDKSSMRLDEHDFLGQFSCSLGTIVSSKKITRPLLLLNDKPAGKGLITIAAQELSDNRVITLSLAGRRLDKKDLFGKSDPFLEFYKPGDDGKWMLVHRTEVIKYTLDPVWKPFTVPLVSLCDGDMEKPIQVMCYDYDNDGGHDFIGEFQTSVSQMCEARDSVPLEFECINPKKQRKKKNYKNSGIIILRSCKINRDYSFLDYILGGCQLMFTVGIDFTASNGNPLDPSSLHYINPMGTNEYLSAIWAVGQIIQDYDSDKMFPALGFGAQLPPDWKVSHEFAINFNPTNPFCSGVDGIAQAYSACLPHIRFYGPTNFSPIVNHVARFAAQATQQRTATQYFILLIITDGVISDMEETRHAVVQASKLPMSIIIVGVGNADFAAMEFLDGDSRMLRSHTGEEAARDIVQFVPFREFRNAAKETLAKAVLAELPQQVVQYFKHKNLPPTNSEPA
UniProt Q9H3G5: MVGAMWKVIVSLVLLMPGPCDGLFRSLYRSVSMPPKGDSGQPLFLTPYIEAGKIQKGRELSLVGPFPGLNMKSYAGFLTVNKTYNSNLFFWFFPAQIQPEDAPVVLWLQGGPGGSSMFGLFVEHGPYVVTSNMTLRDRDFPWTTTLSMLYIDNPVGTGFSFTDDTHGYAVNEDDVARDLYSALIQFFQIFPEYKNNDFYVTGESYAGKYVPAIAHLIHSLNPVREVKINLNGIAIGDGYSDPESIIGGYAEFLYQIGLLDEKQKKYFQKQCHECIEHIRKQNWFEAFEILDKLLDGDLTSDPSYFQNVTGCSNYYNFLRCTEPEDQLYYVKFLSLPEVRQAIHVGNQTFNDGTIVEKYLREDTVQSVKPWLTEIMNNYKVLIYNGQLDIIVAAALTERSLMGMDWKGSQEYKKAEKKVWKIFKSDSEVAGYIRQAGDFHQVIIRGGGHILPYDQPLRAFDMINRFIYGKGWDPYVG
UniProt O14810: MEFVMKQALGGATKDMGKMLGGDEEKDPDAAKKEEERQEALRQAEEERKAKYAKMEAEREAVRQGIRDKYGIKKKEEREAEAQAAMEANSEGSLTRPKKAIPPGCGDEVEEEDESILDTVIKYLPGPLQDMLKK
UniProt Q9NRU3: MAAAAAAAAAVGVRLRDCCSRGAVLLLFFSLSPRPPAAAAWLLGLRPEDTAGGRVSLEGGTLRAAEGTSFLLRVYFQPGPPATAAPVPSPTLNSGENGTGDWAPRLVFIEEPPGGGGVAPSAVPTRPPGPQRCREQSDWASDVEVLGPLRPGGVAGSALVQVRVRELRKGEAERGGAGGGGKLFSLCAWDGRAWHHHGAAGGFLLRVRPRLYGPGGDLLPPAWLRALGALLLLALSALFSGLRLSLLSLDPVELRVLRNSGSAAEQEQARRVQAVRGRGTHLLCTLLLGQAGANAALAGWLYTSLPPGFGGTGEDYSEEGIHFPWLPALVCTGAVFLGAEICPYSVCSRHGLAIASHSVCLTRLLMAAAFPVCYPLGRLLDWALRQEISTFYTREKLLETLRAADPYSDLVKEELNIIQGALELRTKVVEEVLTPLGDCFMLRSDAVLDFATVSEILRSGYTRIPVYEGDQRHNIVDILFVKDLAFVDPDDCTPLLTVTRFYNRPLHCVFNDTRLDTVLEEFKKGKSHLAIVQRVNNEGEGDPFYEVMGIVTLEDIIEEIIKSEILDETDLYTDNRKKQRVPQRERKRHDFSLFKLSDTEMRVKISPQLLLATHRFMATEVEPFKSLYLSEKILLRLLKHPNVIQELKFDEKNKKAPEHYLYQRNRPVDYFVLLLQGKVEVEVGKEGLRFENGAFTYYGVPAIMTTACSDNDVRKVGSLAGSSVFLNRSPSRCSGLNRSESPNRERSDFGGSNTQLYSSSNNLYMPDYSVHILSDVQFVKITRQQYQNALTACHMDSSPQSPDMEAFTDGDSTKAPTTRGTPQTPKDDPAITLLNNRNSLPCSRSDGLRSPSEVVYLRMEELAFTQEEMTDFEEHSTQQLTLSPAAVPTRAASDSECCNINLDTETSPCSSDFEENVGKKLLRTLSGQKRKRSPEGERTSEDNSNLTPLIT
UniProt Q86WW8: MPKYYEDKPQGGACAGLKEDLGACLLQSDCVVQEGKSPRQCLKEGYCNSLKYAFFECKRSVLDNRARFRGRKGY
UniProt P12109: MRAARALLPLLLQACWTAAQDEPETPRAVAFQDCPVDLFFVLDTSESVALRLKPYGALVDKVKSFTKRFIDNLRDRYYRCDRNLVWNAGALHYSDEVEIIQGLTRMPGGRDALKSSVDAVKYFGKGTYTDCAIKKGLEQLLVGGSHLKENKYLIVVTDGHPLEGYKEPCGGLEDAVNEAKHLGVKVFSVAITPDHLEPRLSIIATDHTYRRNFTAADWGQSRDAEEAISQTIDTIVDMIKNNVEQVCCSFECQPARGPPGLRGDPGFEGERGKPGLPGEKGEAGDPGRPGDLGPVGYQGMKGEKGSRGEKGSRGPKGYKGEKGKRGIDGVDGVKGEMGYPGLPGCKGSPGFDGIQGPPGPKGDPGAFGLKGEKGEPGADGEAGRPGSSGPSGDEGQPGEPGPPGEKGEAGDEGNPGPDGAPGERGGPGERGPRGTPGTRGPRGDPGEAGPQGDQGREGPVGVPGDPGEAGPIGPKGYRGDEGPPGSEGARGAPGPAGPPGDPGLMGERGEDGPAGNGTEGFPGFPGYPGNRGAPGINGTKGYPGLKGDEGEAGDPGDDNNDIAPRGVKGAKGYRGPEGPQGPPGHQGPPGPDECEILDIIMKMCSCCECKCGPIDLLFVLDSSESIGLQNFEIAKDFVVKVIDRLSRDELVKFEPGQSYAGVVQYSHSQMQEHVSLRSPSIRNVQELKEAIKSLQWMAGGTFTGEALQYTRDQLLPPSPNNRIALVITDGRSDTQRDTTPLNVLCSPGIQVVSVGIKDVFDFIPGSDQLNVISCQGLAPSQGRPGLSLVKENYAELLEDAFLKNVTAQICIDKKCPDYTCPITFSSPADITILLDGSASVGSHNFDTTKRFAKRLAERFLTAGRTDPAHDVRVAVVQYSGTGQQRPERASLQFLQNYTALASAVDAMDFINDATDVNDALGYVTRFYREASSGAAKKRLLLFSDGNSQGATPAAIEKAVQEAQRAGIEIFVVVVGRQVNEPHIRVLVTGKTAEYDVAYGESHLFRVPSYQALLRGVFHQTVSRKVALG
UniProt Q86YQ8: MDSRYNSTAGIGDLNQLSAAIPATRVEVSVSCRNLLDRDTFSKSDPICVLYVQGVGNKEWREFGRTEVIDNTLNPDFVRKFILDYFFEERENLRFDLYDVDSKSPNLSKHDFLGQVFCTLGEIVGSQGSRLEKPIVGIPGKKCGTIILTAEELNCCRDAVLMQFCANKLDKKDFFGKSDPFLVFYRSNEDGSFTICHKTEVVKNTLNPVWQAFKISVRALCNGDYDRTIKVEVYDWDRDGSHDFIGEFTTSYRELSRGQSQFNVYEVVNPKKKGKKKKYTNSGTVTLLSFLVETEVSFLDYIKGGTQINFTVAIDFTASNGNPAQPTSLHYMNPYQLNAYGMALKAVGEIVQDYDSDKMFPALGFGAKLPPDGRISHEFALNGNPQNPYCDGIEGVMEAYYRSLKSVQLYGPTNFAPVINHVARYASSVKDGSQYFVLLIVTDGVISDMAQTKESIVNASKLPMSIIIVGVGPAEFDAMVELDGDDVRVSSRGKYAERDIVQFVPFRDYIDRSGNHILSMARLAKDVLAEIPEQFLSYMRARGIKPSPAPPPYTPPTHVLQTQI
UniProt O95628: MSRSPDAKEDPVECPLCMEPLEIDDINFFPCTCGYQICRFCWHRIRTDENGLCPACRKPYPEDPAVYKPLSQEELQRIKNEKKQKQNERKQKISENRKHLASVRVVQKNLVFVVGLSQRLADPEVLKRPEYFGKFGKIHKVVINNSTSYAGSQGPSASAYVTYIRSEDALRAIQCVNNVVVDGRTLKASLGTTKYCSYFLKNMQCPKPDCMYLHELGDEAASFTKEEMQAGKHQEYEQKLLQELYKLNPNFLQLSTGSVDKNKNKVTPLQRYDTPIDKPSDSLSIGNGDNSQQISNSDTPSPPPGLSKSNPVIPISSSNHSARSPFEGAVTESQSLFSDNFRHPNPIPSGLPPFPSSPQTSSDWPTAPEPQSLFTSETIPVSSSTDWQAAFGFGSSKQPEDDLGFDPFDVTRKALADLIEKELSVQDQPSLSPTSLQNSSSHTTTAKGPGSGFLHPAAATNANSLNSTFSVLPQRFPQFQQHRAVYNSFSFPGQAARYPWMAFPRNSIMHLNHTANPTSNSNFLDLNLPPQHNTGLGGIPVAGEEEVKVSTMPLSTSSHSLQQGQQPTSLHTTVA
UniProt P24311, whole entry, looked up: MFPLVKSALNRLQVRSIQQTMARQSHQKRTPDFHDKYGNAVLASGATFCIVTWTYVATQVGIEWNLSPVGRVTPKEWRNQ
UniProt Q8N9A8: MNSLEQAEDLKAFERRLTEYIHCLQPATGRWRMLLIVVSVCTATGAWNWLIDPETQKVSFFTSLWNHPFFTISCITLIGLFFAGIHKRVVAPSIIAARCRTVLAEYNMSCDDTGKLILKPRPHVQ

Columns and labels:
Experiment in all cases: log2 fold change, soluble protein after heating vs DMSO (PISA); higher = thermal stabilisation; K562 lysate, 10 uM; active = over 0.2 and 3.5 SD of the protein, either way, in both replicates (recomputed)
erlotinib = compound: C#Cc1cccc(Nc2ncnc3cc(OCCOC)c(OCCOC)cc23)c1 [erlotinib]
Method in brief: (§1)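 K562 pellets were dounce-homogenised in PBS pH 7.4 with 1 mM MgCl2, and the crude extract at 1 mg/mL protein was treated with 10 μM compound for 30 min. Aliquots were heated for 3 min across 48°C-58°C, pooled, and brought to 0.5% NP-40 at 4°C; soluble protein was the supernatant after 21,000xg for 90 min. Soluble protein was quantified by TMTpro 16plex LC-MS/MS with channel sums equalised, and reported as log2 fold change in thermal stability against DMSO controls, with values from duplicates.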

[1] = compound: C1=CC(=CC=C1C2=NC3=C(N2)C=C(C=C3)C(=O)N)OC4=CC=C(C=C4)Cl
Method in brief: as §1

[2] = compound: C1=CC2=NC=CN=C2C=C1/C=C/3\C(=O)NC(=O)S3
Method in brief: as §1

[3] = compound: C1=CC=C(C=C1)C2=NC(=C(N2)C3=CC=NC=C3)C4=CC(=C(C=C4)Cl)O
Method in brief: as §1

[4] = compound: C1CCN(C1)C(=O)NC2=CC=CC(=C2)NC3=NC=C(C(=N3)NCCC4=CN=CN4)Br
Method in brief: as §1

[5] = compound: C1CN(CCC1(CC2=CC=C(C=C2)Cl)N)C3=NC=NC4=C3C=CN4
Method in brief: as §1

IRAK-1-4 Inhibitor I = compound: C1COCCN1CCN2C3=CC=CC=C3N=C2NC(=O)C4=CC(=CC=C4)[N+](=O)[O-] [IRAK-1-4 Inhibitor I]
Method in brief: as §1

ibrutinib = compound: C=CC(=O)N1CCC[C@@H](n2nc(-c3ccc(Oc4ccccc4)cc3)c3c(N)ncnc32)C1 [ibrutinib]
Method in brief: as §1

[6] = compound: CC(=O)c1cnc2ccc(-c3cc(Cl)c(O)c(Cl)c3)nc2c1N[C@H]1CC[C@H](CN(C)C)CC1
Method in brief: as §1

ralimetinib = compound: CC(C)(C)Cn1c(N)nc2ccc(-c3[nH]c(C(C)(C)C)nc3-c3ccc(F)cc3)nc21 [ralimetinib]
Method in brief: as §1

[7] = compound: CC(C)(O)CC(=O)NCCn1ccc2ncnc(Nc3ccc(Oc4cccc(C(F)(F)F)c4)c(Cl)c3)c21
Method in brief: as §1

[8] = compound: CC(C)C1=C2N=C(C=C(N2N=C1)NCC3=CC=CC=C3)NCCCCCCN
Method in brief: as §1

[9] = compound: CC1=C(C(CC(=O)N1)C2=CC=C(C=C2)C(F)(F)F)C(=O)NC3=C(C=C4C(=C3)C=NN4)F
Method in brief: as §1

[10] = compound: CC1=C(C2=C(C=C1)C(=O)C3=CC=CC=C3N2CCCN)C
Method in brief: as §1

[11] = compound: CC1=C(C=C(C=C1)NC(=O)C2=CC(=CC=C2)C(C)(C)C#N)NC3=CC4=C(C=C3)N=CN(C4=O)C
Method in brief: as §1

[12] = compound: CC1=C(C=C(C=C1)NC(=O)C2=CC(=CC=C2)N(C)C)NC(=O)C3=CC=C(C=C3)O
Method in brief: as §1

[13] = compound: CC1=CC=C(C=C1)SC2=C3C=C(SC3=CN=C2)C(=O)N
Method in brief: as §1

[14] = compound: C/C(=N\NC(=O)C1=CC(=CC=C1)S(=O)(=O)N2CCOCC2)/C3=C(C=CC(=C3)Cl)O
Method in brief: as §1

[15] = compound: C1=CC2=C(C=CC(=C2)/C=C\3/C(=O)NC(=NCC4=CC=CS4)S3)N=C1
Method in brief: as §1

[16] = compound: C1=CC=C2C(=C1)C3=NNC4=CC=CC(=C43)C2=O
Method in brief: as §1

| Target | log2 fold change (erlotinib) | log2 fold change [1] | log2 fold change [2] | log2 fold change [3] | log2 fold change [4] | log2 fold change [5] | log2 fold change (IRAK-1-4 Inhibitor I) | log2 fold change (ibrutinib) | log2 fold change [6] | log2 fold change (ralimetinib) | log2 fold change [7] | log2 fold change [8] | log2 fold change [9] | log2 fold change [10] | log2 fold change [11] | log2 fold change [12] | log2 fold change [13] | log2 fold change [14] | log2 fold change [15] | log2 fold change [16] |
| --- | --- | --- | --- | --- | --- | --- | --- | --- | --- | --- | --- | --- | --- | --- | --- | --- | --- | --- | --- | --- |
| CPNE2 (UniProt Q96FN4) | inactive: 0.023 | inactive: 0.035 | inactive: 0.013 | inactive: 0 | inactive: -0.027 | inactive: 0.063 | inactive: -0.018 | inactive: -0.1 | inactive: -0.003 | inactive: -0.057 | inactive: -0.153 | inactive: 0.015 | inactive: -0.055 | inactive: -0.009 | inactive: 0.032 | inactive: 0.058 | inactive: -0.029 | – | – | – |
| CPVL (UniProt Q9H3G5) | inactive: -0.052 | inactive: -0.017 | inactive: 0.026 | inactive: 0.038 | – | – | inactive: 0.03 | inactive: 0.097 | inactive: -0.028 | inactive: -0.018 | inactive: -0.073 | inactive: -0.043 | inactive: 0.177 | inactive: 0 | inactive: 0.119 | inactive: 0.143 | inactive: -0.009 | inactive: -0.074 | inactive: -0.082 | inactive: -0.199 |
| CPLX1 (UniProt O14810) | – | – | – | inactive: 0.012 | inactive: 0.012 | inactive: -0.048 | inactive: 0.027 | – | inactive: -0.071 | inactive: 0.079 | inactive: -0.139 | – | – | active: 0.874 | – | inactive: 0.037 | inactive: 0.119 | inactive: -0.059 | inactive: 0.062 | inactive: 0.114 |
| CNNM1 (UniProt Q9NRU3) | inactive: -0.032 | inactive: 0.188 | – | – | inactive: 0.048 | inactive: 0.045 | – | – | – | – | – | inactive: -0.012 | inactive: 0.069 | inactive: -0.142 | – | – | – | inactive: 0.027 | inactive: -0.055 | inactive: -0.115 |
| COA5 (UniProt Q86WW8) | inactive: -0.063 | inactive: 0.057 | inactive: 0.07 | inactive: -0.081 | inactive: -0.015 | inactive: -0.041 | inactive: 0.137 | inactive: 0.005 | – | inactive: 0.016 | inactive: -0.13 | inactive: 0 | – | inactive: 0.02 | inactive: 0.018 | inactive: 0.052 | – | inactive: 0.014 | inactive: -0.055 | inactive: 0.153 |
| COL6A1 (UniProt P12109) | – | – | – | – | – | – | – | – | – | – | – | – | inactive: -0.052 | – | – | – | – | – | – | – |
| CPNE8 (UniProt Q86YQ8) | inactive: -0.14 | inactive: 0.004 | inactive: 0.112 | inactive: 0.057 | – | – | inactive: 0.062 | inactive: 0.168 | inactive: 0.196 | inactive: -0.087 | inactive: 0.04 | inactive: 0.038 | inactive: 0.009 | inactive: 0.139 | inactive: 0.075 | inactive: -0.042 | inactive: 0.246 | inactive: 0.249 | inactive: 0.011 | inactive: -0.118 |
| CNOT2 (UniProt F8VRS8) | inactive: 0.307 | inactive: 0.101 | – | – | – | – | – | – | – | – | – | inactive: -0.001 | – | – | – | – | – | – | – | – |
| CNOT7 (UniProt H0YBT3) | – | – | – | inactive: -0.197 | – | – | inactive: 0.19 | – | – | inactive: -0.101 | inactive: -0.059 | – | – | – | inactive: -0.026 | inactive: 0.074 | – | – | – | – |
| CNOT4 isoform 9 (UniProt O95628) | inactive: 0 | inactive: 0.015 | inactive: 0 | inactive: -0.105 | inactive: 0.003 | inactive: -0.013 | inactive: 0.054 | inactive: 0.052 | inactive: -0.019 | inactive: 0.043 | inactive: -0.084 | inactive: -0.003 | – | inactive: 0.032 | inactive: -0.138 | inactive: -0.02 | inactive: 0.013 | inactive: 0.005 | inactive: -0.04 | inactive: 0.015 |
| COX7B (UniProt P24311) | inactive: -0.024 | inactive: 0.009 | – | inactive: -0.003 | inactive: -0.085 | inactive: 0.022 | inactive: 0.025 | – | inactive: -0.016 | inactive: 0.014 | inactive: -0.09 | inactive: 0.008 | inactive: -0.046 | inactive: -0.144 | inactive: 0.018 | inactive: 0.039 | inactive: 0.02 | inactive: 0.026 | inactive: -0.011 | inactive: 0.022 |
| CNEP1R1 isoform 2 (UniProt Q8N9A8) | – | – | inactive: -0.029 | – | – | – | – | inactive: -0.168 | – | – | – | – | inactive: 0.1 | – | – | – | – | – | – | – |
